Source: publication PMC11264951
Results are given in words; binding and its absence hold for the method and conditions named. In cells and extracts the contact can be indirect. Some results given as binding are weak or reduced against the parent protein; the word gives no strength.

T1: methyltransferase-like protein 16 (METTL16) (mouse (endogenous in P10 testes)) (UniProt Q9CQG2)
T1 sequence: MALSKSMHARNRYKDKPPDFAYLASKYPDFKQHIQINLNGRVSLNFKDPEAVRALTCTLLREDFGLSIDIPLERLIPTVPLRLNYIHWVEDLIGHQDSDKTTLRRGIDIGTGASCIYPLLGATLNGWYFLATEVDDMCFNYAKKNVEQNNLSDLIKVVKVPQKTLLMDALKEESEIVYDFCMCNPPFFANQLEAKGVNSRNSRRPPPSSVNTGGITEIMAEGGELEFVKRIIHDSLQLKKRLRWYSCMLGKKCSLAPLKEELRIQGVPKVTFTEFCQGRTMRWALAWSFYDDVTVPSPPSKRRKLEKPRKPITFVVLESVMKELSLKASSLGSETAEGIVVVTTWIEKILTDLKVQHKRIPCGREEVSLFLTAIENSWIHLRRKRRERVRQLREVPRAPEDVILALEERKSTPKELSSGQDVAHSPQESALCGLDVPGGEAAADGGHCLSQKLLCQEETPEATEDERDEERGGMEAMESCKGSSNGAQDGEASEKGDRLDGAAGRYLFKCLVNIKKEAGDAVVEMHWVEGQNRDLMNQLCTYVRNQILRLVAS

B1: splicing factors 3b subunit 1 (SF3B1) (protein, UniProt Q99NB9 1-1304)
chain: MAKIAKTHEDIEAQIREIQGKKAALDEAQGVGLDSTGYYDQEIYGGSDSRFAGYVTSIAATELEDDDDDYSSSTSLLGQKKPGYHAPVALLNDIPQSTEQYDPFAEHRPPKIADREDEYKKHRRTMIISPERLDPFADGGKTPDPKMNARTYMDVMREQHLTKEEREIRQQLAEKAKAGELKVVNGAAASQPPSKRKRRWDQTADQTPGATPKKLSSWDQAETPGHTPSLRWDETPGRAKGSETPGATPGSKIWDPTPSHTPAGAATPGRGDTPGHATPGHGGATSSARKNRWDETPKTERDTPGHGSGWAETPRTDRGGDSIGETPTPGASKRKSRWDETPASQMGGSTPVLTPGKTPIGTPAMNMATPTPGHIMSMTPEQLQAWRWEREIDERNRPLSDEELDAMFPEGYKVLPPPAGYVPIRTPARKLTATPTPLGGMTGFHMQTEDRTMKSVNDQPSGNLPFLKPDDIQYFDKLLVDVDESTLSPEEQKERKIMKLLLKIKNGTPPMRKAALRQITDKAREFGAGPLFNQILPLLMSPTLEDQERHLLVKVIDRILYKLDDLVRPYVHKILVVIEPLLIDEDYYARVEGREIISNLAKAAGLATMISTMRPDIDNMDEYVRNTTARAFAVVASALGIPSLLPFLKAVCKSKKSWQARHTGIKIVQQIAILMGCAILPHLRSLVEIIEHGLVDEQQKVRTISALAIAALAEAATPYGIESFDSVLKPLWKGIRQHRGKGLAAFLKAIGYLIPLMDAEYANYYTREVMLILIREFQSPDEEMKKIVLKVVKQCCGTDGVEANYIKTEILPPFFKHFWQHRMALDRRNYRQLVDTTVELANKVGAAEIISRIVDDLKDEAEQYRKMVMETIEKIMGNLGAADIDHKLEEQLIDGILYAFQEQTTEDSVMLNGFGTVVNALGKRVKPYLPQICGTVLWRLNNKSAKVRQQAADLISRTAVVMKTCQEEKLMGHLGVVLYEYLGEEYPEVLGSILGALKAIVNVIGMHKMTPPIKDLLPRLTPILKNRHEKVQENCIDLVGRIADRGAEYVSAREWMRICFELLELLKAHKKAIRRATVNTFGYIAKAIGPHDVLATLLNNLKVQERQNRVCTTVAIAIVAETCSPFTVLPALMNEYRVPELNVQNGVLKSLSFLFEYIGEMGKDYIYAVTPLLEDALMDRDLVHRQTASAVVQHMSLGVYGFGCEDSLNHLLNYVWPNVFETSPHVIQAVMGALEGLRVAIGPCRMLQYCLQGLFHPARKVRDVYWKIYNSIYIGSQDALIAHYPRIYNDDKNTYIRYDLDYIL
B2: splicing factor 3b subunit 3 (SF3B3) (protein, UniProt Q921M3 1-1217)
chain: MFLYNLTLQRATGISFAIHGNFSGTKQQEIVVSRGKILELLRPDPNTGKVHTLLTVEVFGVIRSLMAFRLTGGTKDYIVVGSDSGRIVILEYQPSKNMFEKIHQETFGKSGCRRIVPGQFLAVDPKGRAVMISAIEKQKLVYILNRDAAARLTISSPLEAHKANTLVYHVVGVDVGFENPMFACLEMDYEEADNDPTGEAAANTQQTLTFYELDLGLNHVVRKYSEPLEEHGNFLITVPGGSDGPSGVLICSENYITYKNFGDQPDIRCPIPRRRNDLDDPERGMIFVCSATHKTKSMFFFLAQTEQGDIFKITLETDEDMVTEIRLKYFDTVPVAAAMCVLKTGFLFVASEFGNHYLYQIAHLGDDDEEPEFSSAMPLEEGDTFFFQPRPLKNLVLVDELDSLSPILFCQIADLANEDTPQLYVACGRGPRSSLRVLRHGLEVSEMAVSELPGNPNAVWTVRRHIEDEFDAYIIVSFVNATLVLSIGETVEEVTDSGFLGTTPTLSCSLLGDDALVQVYPDGIRHIRADKRVNEWKTPGKKTIVKCAVNQRQVVIALTGGELVYFEMDPSGQLNEYTERKEMSADVVCMSLANVPPGEQRSRFLAVGLVDNTVRIISLDPSDCLQPLSMQALPAQPESLCIVEMGGTEKQDELGERGSIGFLYLNIGLQNGVLLRTVLDPVTGDLSDTRTRYLGSRPVKLFRVRMQGQEAVLAMSSRSWLSYSYQSRFHLTPLSYETLEFASGFASEQCPEGIVAISTNTLRILALEKLGAVFNQVAFPLQYTPRKFVIHPESNNLIIIETDHNAYTEATKAQRKQQMAEEMVEAAGEDERELAAEMAAAFLNENLPESIFGAPKAGNGQWASVIRVMNPIQGNTLDLVQLEQNEAAFSVAVCRFSNTGEDWYVLVGVAKDLILSPRSVAGGFVYTYKLVNNGEKLEFLHKTPVEEVPAAIAPFQGRVLIGVGKLLRVYDLGKKKLLRKCENKHIANYISGIQTIGHRVIVSDVQESFIWVRYKRNENQLIIFADDTYPRWVTTASLLDYDTVAGADKFGNICVVRLPPNTNDEVDEDPTGNKALWDRGLLNGASQKAEVIMNYHVGETVLSLQKTTLIPGGSESLVYTTLSGGIGILVPFTSHEDHDFFQHVEMHLRSEHPPLCGRDHLSFRSYYFPVKNVIDGDLCEQFNSMEPNKQKNVSEELDRTPPEVSKKLEDIRTRYAF
B3: meiosis specific with coiled-coil domain (MEIOC) (protein, UniProt A2AG06 1-965)
chain: MEVSGGDTCRPRHPQGLREGPEPKVAAAAAAFRGSANRCWNLSVDTSNRLSDVFNSMMLTGSAPFYDCYKSQNEDNVDLRQTCTPLSSSTEYASSIDSSLFYAPWSTYGDDIKQPPSSQISVKNRIQTERNDYGSETDLYGLVSNILEEQDKSQPYFAEGTCSSNLKSVWPMNTSRFVDHHDLLTEPKRPVDTSISQQAFYSGESVSAVEKQYLHNSSLTPQQKIDELYHGYTGLDLEEQWLYLSRSDHSNCYNSQANDTVKATFQEYPFVKNCFTPQTGLSDIMKESGIDTYAYGREKICTKGLETPLQHKRAEIFLSQFNRYNENADYCRYPEYAHPNKAKLNKCSNFSVQDGKKLANGTPETPTVEADAYTKLFQVKPANQKKMEETIPDQQNFAFPKTTPHLTEKQFAKEAAFTADFGLKSEYGLKPHTACPTNNDFANVSEKQQFAKPDPLNSEYFKSVNLFSNSATSSGGISLNRPTWMNVQTKNNLPIPYRNQGNLMKLNSHLSAASKGSNHSSDFPQLSSTNLTSNSNLFQKYCQENPSAFSSFDFSYNGAERIQSVNHMEGLTKTGEDNLFESVTEKKIKQPNGFCDSYSASQYGIIENVNKHNFQAKPQSGHYDPEDIPKHFDGLPQNTYQDLLESQGHFNSHRQGSGDNNINSRVNRTQASCFSNNYMMGDLRHNQGFQQLGSNGFPLRSTHPFGHSVVPLLDSYDLFSYDDLSHLYPYFNDMMYGDNSFSGFVPTFGFQRPIKTRSGPASELHIRLEECYEQWRALEKERKKTELALAKNYPGKKVSSTNNTPIPRLTSNPSRVDRLIVDELREQARVVTLLGKMERLRSSPLHANISTALDRHLESIHIVQSRRKDEIVNASNRQRQGVPRCQDDRDVFALATAIKEMCVATRKARTTLWCALQMTLPKTASTAGQADMEKAFQDLVNCEEKVHESINSSNPMNQRGETSKH
B4: RNA binding motif protein 46 (RBM46) (protein, UniProt P86049 1-533)
chain: MNEENTDGTNGCSKVRTGTQNEAALLALMEKTGYNMVQENGQRKFGGPPPGWEGPPPPRGCEVFVGKIPRDMYEDELVPVFERAGKIYEFRLMMEFSGENRGYAFVMYTTKEEAQLAIRILNNYEIRPGKFIGVCVSLDNCRLFIGAIPKEKKKEEILDEMKKVTEGVVDVIVYPSATDKTKNRGFAFVEYESHRAAAMARRKLIPGTFQLWGHTIQVDWADPEKEVDEETMQRVKVLYVRNLMISTTEETIKAEFSKFKPGAVERVKKLRDYAFVHFFHREDAVAAMSVMNGKCIDGASIEVTLAKPVNKENTWRQHLNGQISPNSENLLVYANKEESHSKSLGKPPTLPTRLNGQHSPSPPEIERCTYPFFPGTKLTPISMYSLKSNHFNSAVMHLDYYCNKNNWAPPEYYLYSTTSQDGKVLLVYKIVIPAIANGSQSYFMPDKLCTTLEDAKELAAQFTLLHLDFNFRRSSINSLSPVSTTLSSGTPSMLPYTSRPSSYPSYPLSPTISLANGSHVGQRLYISNQASFF
B5: YTHDC2 (protein, UniProt B2RR83 1-1445)
chain: MSRPSSVSPRPPAPSGGGTGGGGGGSGGGGGGGGGGPASCGPGGGGRAKGLKDIRIDEEVKIAVNIALERFRYGDQREMEFPSSLTSTERAFIHRLSQSLGLVSKSKGKGANRYLTVKKKDGSETAHAMMTCNLTHNTKHAVRSLIQRFPVTNKERTELLPKTERGNVFAVEAENREMSKTSGRLNNGIPQVPVKRGESEFDSFRQSLPVFEKQEEIVKIIKENKVVLIVGETGSGKTTQIPQFLLDDCFKNGIPCRIFCTQPRRLAAIAVAERVAAERRERIGQTIGYQIRLESRVSPKTLLTFCTNGVLLRTLMAGDSTLSTVTHVIVDEVHERDRFSDFLLTKLRDLLQKHPTLKLILSSAALDVNLFIRYFGSCPVIYIQGRPFEVKEMFLEDILRTTGYTNKEMLKYKKEKQREEKQQTTLTEWYSAQENTFKPESQRQRAVASVSEEYDLLDDGGDAVFSQLTEKDVNCLEPWLIKEMDACLSDIWLHKDVDAFAQVFHLILTENVSVDYRHSETSATALMVAAGRGFTSQVEQLISMGANVHSKASNGWMALDWAKHFGQTEIVDLLESYSASLEFGNLDESSLVQTNGNDLSAEDRELLKAYHHSFDDEKVDLDLIMHLLYNICHSCDAGAILIFLPGYDEIVGLRDRILFDDKRFADNTHRYQVFMLHSNMQTSDQKKVLKNPPAGVRKIILSTNIAETSITVNDVVFVIDSGKVKEKSFDALNFVTMLKMVWISKASAIQRKGRAGRCRPGICFRLFSRLRFQNMLEFQTPELLRMPLQELCLHTKLLAPVNCTIADFLMKAPEPPPALIVRNAVQMLKTIDAMDAWEDLTELGYHLADLPVEPHLGKMVLCAVVLKCLDPILTIACTLAYRDPFVLPTQASQKRAAMLCRKRFTAGTFSDHMALLRAFQAWQKARSDGWERAFCEKNFLSQATMEIIIGMRTQLLGQLRASGFVRARGGGDIRDVNTNSENWAVVKAALVAGMYPNLVHVDRENVILTGPKEKKVRFHPTSVLSQPQYKKIPPANGQAAAIQALPTDWLIYDEMTRAHRIANIRCCSAVTPVTVLVFCGPARLASNALQEPSSFRADGIPNDSSDSEMEDRTTANLAALKLDEWLNFKLEPEAASLLLQLRQKWHSLFLRRMRAPSKPWSQVDEATIRAIIAVLSTEEQSAGLQQPSGIGQRPRPMSSEELPLASSWRSNNSRKSTADTEFADGSTTGERVLMKSPSPALHPPQKYKDRGILHPKRSTDDRSDQSSVKSTDSSSYPSPCASPSPPSSGKGSKSPSPRPNMPIRYFIMKSSNLRNLEISQQKGIWSTTPSNERKLNRAFWESSMVYLVFSVQGSGHFQGFSRMSSEIGREKSQDWGSAGLGGVFKVEWIRKESLPFQFAHHLLNPWNDNKKVQISRDGQELEPQVGEQLLQLWERLPLGEKTTSD

molecular target: T1, methyltransferase-like protein 16 (METTL16) (mouse (endogenous in P10 testes)); experiment: co-IP; P10 mouse testis lysates in IP lysis buffer, IP with METTL16 antibody or IgG control (also METTL16 antibody plus RNase A), Protein A magnetic beads, 4 °C, western blot of the eluate

binding	Binder
binds	B1
binds	B2
binds	B3
binds	B4
binds	B5
